This is one part of the list.
What was measured:
Experiment in all cases: glycan array binding signal (z-score within array); higher = stronger binding
Conditions in all cases: glycan notation: IUPAC condensed, linker removed
[1] = biological target: Neu5Ac(a2-3)Gal(b1-4)GlcNAc(b1-3)[Neu5Ac(a2-3)Gal(b1-4)GlcNAc(b1-6)]GalNAc
Outline: (§1)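 Glycan array binding is given as a within-array Z-score, which can be read as non-binding when negative. The arrays, 3228 of them, came from the Consortium for Functional Glycomics database and were retained only where the protein sequence was available. Z-scores were averaged across arrays of the same protein sequence at different concentrations or buffers and across linkers.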

[2] = biological target: Neu5Ac(a2-3)Gal(b1-4)GlcNAc(b1-6)GalNAc
Outline: as §1

[3] = biological target: Neu5Ac(a2-3)Gal(b1-4)GlcNAc(b1-6)[Gal(b1-3)]GalNAc
Outline: as §1

[4] = biological target: Neu5Ac(a2-3)Gal(b1-4)GlcNAc(b1-6)[Neu5Ac(a2-3)Gal(b1-3)]GalNAc
Outline: as §1

[5] = biological target: Neu5Ac(a2-3)Gal(b1-4)GlcNAc6S
Outline: as §1

[6] = biological target: Neu5Ac(a2-3)Gal(b1-4)[Fuc(a1-3)]GlcNAc
Outline: as §1

[7] = biological target: Neu5Ac(a2-3)Gal(b1-4)[Fuc(a1-3)]GlcNAc(b1-2)Man
Outline: as §1

[8] = biological target: Neu5Ac(a2-3)Gal(b1-4)[Fuc(a1-3)]GlcNAc(b1-3)Gal
Outline: as §1

[9] = biological target: Neu5Ac(a2-3)Gal(b1-4)[Fuc(a1-3)]GlcNAc(b1-3)Gal(b1-4)GlcNAc
Outline: as §1

[10] = biological target: Neu5Ac(a2-3)Gal(b1-4)[Fuc(a1-3)]GlcNAc(b1-3)Gal(b1-4)[Fuc(a1-3)]GlcNAc(b1-3)Gal(b1-4)[Fuc(a1-3)]GlcNAc
Outline: as §1

[11] = biological target: Neu5Ac(a2-3)Gal(b1-4)[Fuc(a1-3)]GlcNAc(b1-3)GalNAc
Outline: as §1

[12] = biological target: Neu5Ac(a2-3)Gal(b1-4)[Fuc(a1-3)]GlcNAc(b1-6)[Gal(b1-3)]GalNAc
Outline: as §1

[13] = biological target: Neu5Ac(a2-3)Gal(b1-4)[Fuc(a1-3)]GlcNAc(b1-6)[Neu5Ac(a2-3)Gal(b1-3)]GalNAc
Outline: as §1

[14] = biological target: Neu5Ac(a2-3)Gal(b1-4)[Fuc(a1-3)]GlcNAc6S
Outline: as §1

[15] = biological target: Neu5Ac(a2-3)Gal6S(b1-4)GlcNAc
Outline: as §1

[16] = biological target: Neu5Ac(a2-3)Gal6S(b1-4)[Fuc(a1-3)]GlcNAc
Outline: as §1

[17] = biological target: Neu5Ac(a2-3)GalNAc
Outline: as §1

[18] = biological target: Neu5Ac(a2-3)GalNAc(b1-4)GlcNAc
Outline: as §1

[19] = biological target: Neu5Ac(a2-3)[GalNAc(b1-4)]Gal(b1-4)Glc
Outline: as §1

[20] = biological target: Neu5Ac(a2-3)[GalNAc(b1-4)]Gal(b1-4)GlcNAc
Outline: as §1

[21] = biological target: Neu5Ac(a2-3)[GalNAc(b1-4)]Gal(b1-4)GlcNAc(b1-3)GalNAc
Outline: as §1

[22] = biological target: Neu5Ac(a2-3)[Neu5Ac(a2-6)]GalNAc
Outline: as §1

[23] = biological target: Neu5Ac(a2-6)Gal
Outline: as §1

[24] = biological target: Neu5Ac(a2-6)Gal(b1-3)GlcNAc(b1-3)[Gal(b1-4)GlcNAc(b1-6)]Gal(b1-4)Glc
Outline: as §1

[25] = biological target: Neu5Ac(a2-6)Gal(b1-4)Glc
Outline: as §1

[26] = biological target: Neu5Ac(a2-6)Gal(b1-4)GlcNAc
Outline: as §1

[27] = biological target: Neu5Ac(a2-6)Gal(b1-4)GlcNAc(b1-2)Man
Outline: as §1

[28] = biological target: Neu5Ac(a2-6)Gal(b1-4)GlcNAc(b1-2)Man(a1-3)Man(b1-4)GlcNAc(b1-4)GlcNAc
Outline: as §1

[29] = biological target: Neu5Ac(a2-6)Gal(b1-4)GlcNAc(b1-2)Man(a1-3)[Gal(b1-4)GlcNAc(b1-2)Man(a1-6)]Man(b1-4)GlcNAc(b1-4)GlcNAc
Outline: as §1

[30] = biological target: Neu5Ac(a2-6)Gal(b1-4)GlcNAc(b1-2)Man(a1-3)[GlcNAc(b1-2)Man(a1-6)]Man(b1-4)GlcNAc(b1-4)GlcNAc
Outline: as §1

[31] = biological target: Neu5Ac(a2-6)Gal(b1-4)GlcNAc(b1-2)Man(a1-3)[GlcNAc(b1-4)][Neu5Ac(a2-6)Gal(b1-4)GlcNAc(b1-2)Man(a1-6)]Man(b1-4)GlcNAc(b1-4)GlcNAc
Outline: as §1

[32] = biological target: Neu5Ac(a2-6)Gal(b1-4)GlcNAc(b1-2)Man(a1-3)[Man(a1-6)]Man(b1-4)GlcNAc(b1-4)GlcNAc
Outline: as §1

[33] = biological target: Neu5Ac(a2-6)Gal(b1-4)GlcNAc(b1-2)Man(a1-3)[Neu5Ac(a2-3)Gal(b1-4)GlcNAc(b1-2)Man(a1-6)]Man(b1-4)GlcNAc(b1-4)GlcNAc
Outline: as §1

[34] = biological target: Neu5Ac(a2-6)Gal(b1-4)GlcNAc(b1-2)Man(a1-3)[Neu5Ac(a2-6)Gal(b1-4)GlcNAc(b1-2)Man(a1-6)]Man(b1-4)GlcNAc(b1-4)GlcNAc
Outline: as §1

[35] = biological target: Neu5Ac(a2-6)Gal(b1-4)GlcNAc(b1-2)Man(a1-3)[Neu5Ac(a2-6)Gal(b1-4)GlcNAc(b1-2)Man(a1-6)]Man(b1-4)GlcNAc(b1-4)[Fuc(a1-6)]GlcNAc
Outline: as §1

[36] = biological target: Neu5Ac(a2-6)Gal(b1-4)GlcNAc(b1-2)Man(a1-6)Man(b1-4)GlcNAc(b1-4)GlcNAc
Outline: as §1

[37] = biological target: Neu5Ac(a2-6)Gal(b1-4)GlcNAc(b1-2)Man(a1-6)[Gal(b1-4)GlcNAc(b1-2)Man(a1-3)]Man(b1-4)GlcNAc(b1-4)GlcNAc
Outline: as §1

[38] = biological target: Neu5Ac(a2-6)Gal(b1-4)GlcNAc(b1-2)Man(a1-6)[GlcNAc(b1-2)Man(a1-3)]Man(b1-4)GlcNAc(b1-4)GlcNAc
Outline: as §1

[39] = biological target: Neu5Ac(a2-6)Gal(b1-4)GlcNAc(b1-2)Man(a1-6)[Man(a1-3)]Man(b1-4)GlcNAc(b1-4)GlcNAc
Outline: as §1

[40] = biological target: Neu5Ac(a2-6)Gal(b1-4)GlcNAc(b1-2)[Neu5Ac(a2-6)Gal(b1-4)GlcNAc(b1-4)]Man(a1-3)[GlcNAc(b1-4)][Neu5Ac(a2-6)Gal(b1-4)GlcNAc(b1-2)[Neu5Ac(a2-6)Gal(b1-4)GlcNAc(b1-6)]Man(a1-6)]Man(b1-4)GlcNAc(b1-4)GlcNAc
Outline: as §1

[41] = biological target: Neu5Ac(a2-6)Gal(b1-4)GlcNAc(b1-2)[Neu5Ac(a2-6)Gal(b1-4)GlcNAc(b1-4)]Man(a1-3)[GlcNAc(b1-4)][Neu5Ac(a2-6)Gal(b1-4)GlcNAc(b1-4)Man(a1-6)]Man(b1-4)GlcNAc(b1-4)GlcNAc
Outline: as §1

[42] = biological target: Neu5Ac(a2-6)Gal(b1-4)GlcNAc(b1-2)[Neu5Ac(a2-6)Gal(b1-4)GlcNAc(b1-6)]Man(a1-6)[Neu5Ac(a2-6)Gal(b1-4)GlcNAc(b1-2)Man(a1-3)][GlcNAc(b1-4)]Man(b1-4)GlcNAc(b1-4)GlcNAc
Outline: as §1

[43] = biological target: Neu5Ac(a2-6)Gal(b1-4)GlcNAc(b1-3)Gal(b1-3)GlcNAc
Outline: as §1

[44] = biological target: Neu5Ac(a2-6)Gal(b1-4)GlcNAc(b1-3)Gal(b1-4)GlcNAc
Outline: as §1

[45] = biological target: Neu5Ac(a2-6)Gal(b1-4)GlcNAc(b1-3)Gal(b1-4)GlcNAc(b1-2)Man(a1-3)[Neu5Ac(a2-6)Gal(b1-4)GlcNAc(b1-3)Gal(b1-4)GlcNAc(b1-2)Man(a1-6)]GalNAc
Outline: as §1

[46] = biological target: Neu5Ac(a2-6)Gal(b1-4)GlcNAc(b1-3)Gal(b1-4)GlcNAc(b1-3)Gal(b1-4)GlcNAc
Outline: as §1

B1: FGF1 (Homo sapiens), P05230 (protein)
chain: MAEGEITTFTALTEKFNLPPGNYKKPKLLYSNGGHFLRILPDGTVDGTRDRSDQHIQLQLSAESVGEVYIKSTETGQYLAMTDGLLYGSQTPNEECLFLERLEENHYNTYISKHAEKNWFVGLKKNGSCKRGPRTHYGQAILFLPLPASSED
[1]
  glycan array binding signal (z-score): -0.483
[2]
  glycan array binding signal (z-score): -0.141
[3]
  glycan array binding signal (z-score): -0.187
[4]
  glycan array binding signal (z-score): -0.954
[5]
  glycan array binding signal (z-score): -0.463
[6]
  glycan array binding signal (z-score): -0.632
[7]
  glycan array binding signal (z-score): -0.767
[8]
  glycan array binding signal (z-score): -0.744
[9]
  glycan array binding signal (z-score): 0.987
[10]
  glycan array binding signal (z-score): -0.968
[11]
  glycan array binding signal (z-score): 1.3
[12]
  glycan array binding signal (z-score): 0.146
[13]
  glycan array binding signal (z-score): 0.465
[14]
  glycan array binding signal (z-score): 0.112
[15]
  glycan array binding signal (z-score): -0.89
[16]
  glycan array binding signal (z-score): -0.669
[17]
  glycan array binding signal (z-score): 0.463
[18]
  glycan array binding signal (z-score): -0.361
[19]
  glycan array binding signal (z-score): -0.804
[20]
  glycan array binding signal (z-score): -0.855
[21]
  glycan array binding signal (z-score): -0.27
[22]
  glycan array binding signal (z-score): -0.47
[23]
  glycan array binding signal (z-score): 1.8
[24]
  glycan array binding signal (z-score): -0.745
[25]
  glycan array binding signal (z-score): 0.536
[26]
  glycan array binding signal (z-score): -0.718
[27]
  glycan array binding signal (z-score): 0.963
[28]
  glycan array binding signal (z-score): -0.04
[29]
  glycan array binding signal (z-score): -0.812
[30]
  glycan array binding signal (z-score): 0.337
[31]
  glycan array binding signal (z-score): -0.362
[32]
  glycan array binding signal (z-score): -0.035
[33]
  glycan array binding signal (z-score): -0.737
[34]
  glycan array binding signal (z-score): 0.039
[35]
  glycan array binding signal (z-score): -0.706
[36]
  glycan array binding signal (z-score): -0.414
[37]
  glycan array binding signal (z-score): -0.298
[38]
  glycan array binding signal (z-score): -0.691
[39]
  glycan array binding signal (z-score): 0.651
[40]
  glycan array binding signal (z-score): -0.425
[41]
  glycan array binding signal (z-score): -0.019
[42]
  glycan array binding signal (z-score): -0.541
[43]
  glycan array binding signal (z-score): -0.667
[44]
  glycan array binding signal (z-score): -0.866
[45]
  glycan array binding signal (z-score): -0.026
[46]
  glycan array binding signal (z-score): -0.546
